The list does not hold the whole screen: it is rich in T/C values a quarter to a half above the control, in often repeated tests (any T/C) and in doses without a T/C. Other doses and runs of a compound stand elsewhere. T/C: endpoint of the treated group in % of that of the vehicle group. Schedules are NCI's codes, read here as Q, the interval in days (D) or hours (H), X, the number of doses. Some doses have a count of surviving animals in place of a T/C: the source holds a T/C of zero for them, seemingly a mark for toxic or unscored doses. Some doses without a T/C left all or most animals alive at the check, yet need not have been tolerated: the source hardly ever lists a survival T/C far under the control, and the zero likely stands for such cases as well. Survivors were counted at the toxicity check, usually on the fifth day, unless a day is given; later deaths do not show. Where survival is the endpoint, this PubChem deposit counts one and a half times the control or more as active, and values a quarter to a half above the control carry no call in these data; other NCI protocols may use other cut-offs.
Test system: BDF1 mice, s.c. Lewis lung carcinoma, T/C %
Experiment: NCI In Vivo Anticancer Drug Screen. Data for tumor model Lewis Lung Carcinoma (subcutaneous) in B6D2F1 (BDF1) mice
Description: The antitumor activity of compounds was measured in mice bearing transplantable tumors. Survival or tumor size were measured and the results are expressed as the measurement made in the treated group (T) divided by the measurement made in the vehicle treated control group (C). The tumor model used in this assay is Lewis Lung Carcinoma (subcutaneous) in B6D2F1 (BDF1) mice

[1] = T/C endpoint: median survival time, dose: 100.0 mg/kg/injection, schedule: Q01DX009 (ip), vehicle: saline, higher T/C = longer survival

For CNS(=O)(=O)c1ncnc2nc[nH]c12, the survivor count (T/C endpoint: mean tumor weight, dose: 115.0 mg/kg/injection, schedule: Q01DX011 (ip), vehicle: carboxymethylcellulose (CMC), higher T/C = larger tumour) was 3 of 6, the survivor count (T/C endpoint: mean tumor weight, dose: 170.0 mg/kg/injection, schedule: Q01DX011 (ip), vehicle: carboxymethylcellulose (CMC), higher T/C = larger tumour) was 0 of 6 and the survivor count (T/C endpoint: mean tumor weight, dose: 255.0 mg/kg/injection, schedule: Q01DX011 (ip), vehicle: carboxymethylcellulose (CMC), higher T/C = larger tumour) was 0 of 6.
CC1(C)C(CC(=O)O)CC1C(=O)O (stereo unspecified) was tested, and the T/C (T/C endpoint: mean tumor weight, dose: 111.0 mg/kg/injection, schedule: Q01DX011 (ip), vehicle: other, evaluated on day 12, higher T/C = larger tumour) was 126 % of control, the survivor count (T/C endpoint: mean tumor weight, dose: 250.0 mg/kg/injection, schedule: Q01DX011 (ip), vehicle: other, higher T/C = larger tumour) was 1 of 6 and the survivor count (T/C endpoint: mean tumor weight, dose: 375.0 mg/kg/injection, schedule: Q01DX011 (ip), vehicle: other, higher T/C = larger tumour) was 0 of 6.
With Nc1ncnc2nc[nH]c12 the survivor count (T/C endpoint: mean tumor weight, dose: 200.0 mg/kg/injection, schedule: Q01DX011 (ip), vehicle: saline, higher T/C = larger tumour) was 3 of 6 and the survivor count (T/C endpoint: mean tumor weight, dose: 400.0 mg/kg/injection, schedule: Q01DX011 (ip), vehicle: saline, higher T/C = larger tumour) was 0 of 6.
With CO[C@@H]1[C@@H](OC2OC(C)C(OC3CC(C)(O)C(OC(=O)CC(C)C)C(C)O3)C(N(C)C)C2O)[C@@H](CC=O)C[C@@H](C)C(=O)/C=C/C2O[C@H]2C[C@@H](C)OC(=O)C[C@H]1OC(C)=O (stereo partly specified) the survivor count (T/C endpoint: mean tumor weight, dose: 600.0 mg/kg/injection, schedule: Q01DX011 (ip), vehicle: saline, higher T/C = larger tumour) was 3 of 6.
In the case of CCCNc1ncnc2c1cnn2C, the survivor count (T/C endpoint: mean tumor weight, dose: 35.0 mg/kg/injection, schedule: Q01DX011 (ip), vehicle: saline, higher T/C = larger tumour) is reported as 1 of 6, the survivor count (T/C endpoint: mean tumor weight, dose: 55.0 mg/kg/injection, schedule: Q01DX011 (ip), vehicle: saline, higher T/C = larger tumour) is reported as 0 of 6 and the survivor count (T/C endpoint: mean tumor weight, dose: 85.0 mg/kg/injection, schedule: Q01DX011 (ip), vehicle: saline, higher T/C = larger tumour) is reported as 0 of 6.
With O=NN(CCCl)C(=O)NC1CCS(=O)(=O)CC1 the T/C (T/C endpoint: median survival time, dose: 3.0 mg/kg/injection, schedule: Q04DX004 (ip), vehicle: Klucel (hydroxypropylcellulose) (HPC), higher T/C = longer survival) was 147 % of control, the T/C (T/C endpoint: median survival time, dose: 8.5 mg/kg/injection, schedule: Q04DX004 (ip), vehicle: carboxymethylcellulose (CMC), higher T/C = longer survival) was 139 % of control and the T/C (T/C endpoint: median survival time, dose: 8.5 mg/kg/injection, schedule: Q07DX002 (ip), vehicle: carboxymethylcellulose (CMC), higher T/C = longer survival) was 136 % of control. The survivor count (T/C endpoint: median survival time, dose: 10.0 mg/kg/injection, schedule: Q04DX004 (ip), vehicle: carboxymethylcellulose (CMC), higher T/C = longer survival) was 10 of 10 on day 12, the T/C (T/C endpoint: median survival time, dose: 11.0 mg/kg/injection, schedule: Q07DX002 (ip), vehicle: carboxymethylcellulose (CMC), higher T/C = longer survival) was 142 % of control and the T/C (T/C endpoint: median survival time, dose: 14.0 mg/kg/injection, schedule: Q07DX002 (ip), vehicle: carboxymethylcellulose (CMC), higher T/C = longer survival) was 144 % of control.
ClCC[N+]12CC[N+](CCCl)(CC1)C2 was tested, and the T/C [1] was 136 % of control, the survivor count [1] was 10 of 10 and the survivor count (T/C endpoint: median survival time, dose: 200.0 mg/kg/injection, schedule: Q01DX009 (ip), vehicle: saline, higher T/C = longer survival) was 9 of 10. For the same compound, the survivor count (T/C endpoint: median survival time, dose: 400.0 mg/kg/injection, schedule: Q01DX009 (ip), vehicle: saline, higher T/C = longer survival) was 7 of 10.
In the case of CC(CCc1cccc2ccccc12)(C(=O)O)C(=O)O, the survivor count (T/C endpoint: mean tumor weight, dose: 125.0 mg/kg/injection, schedule: Q01DX011 (ip), vehicle: carboxymethylcellulose (CMC), higher T/C = larger tumour) is reported as 2 of 6, the survivor count (T/C endpoint: mean tumor weight, dose: 250.0 mg/kg/injection, schedule: Q01DX011 (ip), vehicle: carboxymethylcellulose (CMC), higher T/C = larger tumour) is reported as 3 of 6 and the survivor count (T/C endpoint: mean tumor weight, dose: 500.0 mg/kg/injection, schedule: Q01DX011 (ip), vehicle: carboxymethylcellulose (CMC), higher T/C = larger tumour) is reported as 1 of 6.
In the case of Cc1cccc(C)c1[N+](=O)[O-], the survivor count (T/C endpoint: mean tumor weight, dose: 450.0 mg/kg/injection, schedule: Q01DX011 (ip), vehicle: other, higher T/C = larger tumour) is reported as 0 of 6.
For O=C1C2CCCCC2C(=O)N1c1nccs1 (stereo unspecified), the survivor count (T/C endpoint: mean tumor weight, dose: 400.0 mg/kg/injection, schedule: Q01DX011 (ip), vehicle: carboxymethylcellulose (CMC), higher T/C = larger tumour) was 2 of 6.
With CCc1c(CC(=O)O)c2cc(C)ccc2n1Cc1ccc(Cl)cc1 the survivor count (T/C endpoint: mean tumor weight, dose: 100.0 mg/kg/injection, schedule: Q01DX011 (ip), vehicle: saline, higher T/C = larger tumour) was 1 of 6.
With CCCCCCC(=O)O[C@H]1CC[C@H]2[C@@H]3CCC4=CC(=O)CC[C@]4(C)[C@H]3CC[C@]12C the T/C (T/C endpoint: median survival time, dose: 20.0 mg/kg/injection, schedule: Q01DX009 (ip), vehicle: water, higher T/C = longer survival) was 127 % of control and the T/C (T/C endpoint: median survival time, dose: 40.0 mg/kg/injection, schedule: Q01DX009 (ip), vehicle: water, higher T/C = longer survival) was 127 % of control.
In the case of CC(=O)c1c(O)c(C)c(O)c2c1OC1=CC(=O)C(C(C)=O)C(=O)C12C (stereo unspecified), the T/C (T/C endpoint: median survival time, dose: 12.5 mg/kg/injection, schedule: Q01DX009 (ip), vehicle: gum acacia, higher T/C = longer survival) is reported as 132 % of control.
